Test results: publication PMC5356871
Results are given in words; binding and its absence hold for the method and conditions named. In cells and extracts the contact can be indirect. These calls come from enrichment with a bait or labelling near it, and not all partners need be listed.

Chains of the proteins cited; added tags and fusions are not shown.
UniProt P57059: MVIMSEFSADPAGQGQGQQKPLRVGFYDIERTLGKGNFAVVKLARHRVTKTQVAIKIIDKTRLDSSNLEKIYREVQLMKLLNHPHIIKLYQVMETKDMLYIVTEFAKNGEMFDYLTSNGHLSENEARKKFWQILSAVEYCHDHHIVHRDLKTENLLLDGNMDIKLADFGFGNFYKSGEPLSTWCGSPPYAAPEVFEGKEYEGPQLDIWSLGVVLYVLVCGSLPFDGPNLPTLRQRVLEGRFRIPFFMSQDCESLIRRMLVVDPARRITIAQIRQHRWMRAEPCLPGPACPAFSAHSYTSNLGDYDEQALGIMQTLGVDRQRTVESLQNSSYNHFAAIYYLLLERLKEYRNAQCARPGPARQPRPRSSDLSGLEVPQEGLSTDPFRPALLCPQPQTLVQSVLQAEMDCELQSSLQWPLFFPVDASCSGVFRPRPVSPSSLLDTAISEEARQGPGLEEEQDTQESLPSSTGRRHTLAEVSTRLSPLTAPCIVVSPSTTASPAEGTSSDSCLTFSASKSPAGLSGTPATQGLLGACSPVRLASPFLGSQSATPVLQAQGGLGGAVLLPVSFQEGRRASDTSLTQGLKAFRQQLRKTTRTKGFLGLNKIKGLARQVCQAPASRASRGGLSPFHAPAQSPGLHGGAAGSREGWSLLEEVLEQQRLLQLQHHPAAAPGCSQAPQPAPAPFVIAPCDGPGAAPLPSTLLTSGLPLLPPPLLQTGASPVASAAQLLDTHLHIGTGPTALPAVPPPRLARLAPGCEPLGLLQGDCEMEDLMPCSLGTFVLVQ
UniProt Q99496: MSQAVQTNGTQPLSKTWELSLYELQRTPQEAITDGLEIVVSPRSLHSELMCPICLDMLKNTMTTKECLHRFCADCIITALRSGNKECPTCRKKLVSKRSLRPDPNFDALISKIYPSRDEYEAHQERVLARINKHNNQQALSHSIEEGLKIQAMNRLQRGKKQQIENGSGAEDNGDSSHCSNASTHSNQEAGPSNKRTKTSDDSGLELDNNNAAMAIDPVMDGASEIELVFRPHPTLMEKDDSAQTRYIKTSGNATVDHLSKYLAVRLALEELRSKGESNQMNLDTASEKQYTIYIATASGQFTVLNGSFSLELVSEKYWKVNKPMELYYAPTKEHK

Biological target: Flag-tagged-SIK1 (salt-inducible kinase 1) (UniProt P57059)
Experiment: affinity purification with mass spectrometry; affinity purification of Flag-tagged SIK1 followed by MS analysis; cells and conditions not stated

binding: binds
Substance: RNF2 found in complex with Flag-SIK1 (from UniProt Q99496 1-336)
